Source: US20090074663A1
These are yes or no findings as the source states them, for the method shown. Some binding calls cover weakened binding; strength is not graded here.

Amino acid sequences for entries named in this document (tags omitted). Residues count along the entry.
UniProt P24394, residues 26-825: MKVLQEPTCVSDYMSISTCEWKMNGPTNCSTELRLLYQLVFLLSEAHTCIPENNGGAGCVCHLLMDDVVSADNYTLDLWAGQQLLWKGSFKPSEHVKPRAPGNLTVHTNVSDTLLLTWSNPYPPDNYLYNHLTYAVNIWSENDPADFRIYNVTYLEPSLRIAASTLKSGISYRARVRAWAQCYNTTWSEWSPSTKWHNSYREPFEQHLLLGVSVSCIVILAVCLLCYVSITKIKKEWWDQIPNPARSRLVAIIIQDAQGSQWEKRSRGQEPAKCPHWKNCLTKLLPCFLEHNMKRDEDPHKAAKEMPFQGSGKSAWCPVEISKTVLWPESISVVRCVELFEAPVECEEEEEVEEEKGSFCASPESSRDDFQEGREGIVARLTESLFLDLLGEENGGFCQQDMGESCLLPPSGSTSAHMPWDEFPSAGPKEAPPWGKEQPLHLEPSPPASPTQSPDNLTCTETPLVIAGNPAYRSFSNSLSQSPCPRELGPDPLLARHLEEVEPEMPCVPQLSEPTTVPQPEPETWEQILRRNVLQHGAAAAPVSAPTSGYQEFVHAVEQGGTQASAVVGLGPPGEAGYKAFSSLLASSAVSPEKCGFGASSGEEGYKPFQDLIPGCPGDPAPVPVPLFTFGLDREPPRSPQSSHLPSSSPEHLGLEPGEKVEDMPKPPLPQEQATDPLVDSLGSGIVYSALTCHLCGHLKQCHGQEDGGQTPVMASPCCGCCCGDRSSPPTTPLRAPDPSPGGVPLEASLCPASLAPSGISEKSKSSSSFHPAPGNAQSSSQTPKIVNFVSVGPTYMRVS

Tests used:
[1] = molecular target: interleukin-4 receptor (IL-4R) (UniProt P24394); assay: fluorescence microscopy, legend of FIG. 6
[2] = molecular target: interleukin-4 receptor (IL-4R) (UniProt P24394); assay: fluorescence microscopy on HT-1376 cells with endogenous IL-4R, compared with IL-4R siRNA knock-down and mock siRNA
[3] = molecular target: interleukin-4 receptor (IL-4R) (UniProt P24394); assay: fluorescence microscopy, 10 µM peptide on CHO-K1 cells expressing IL-4R; IL-4R-deficient CHO-K1 cells showed no peptide fluorescence
[4] = molecular target: interleukin-4 receptor (IL-4R) (UniProt P24394); assay: fluorescence microscopy on cells with artificial expression or removal of IL-4R (FIGS. 6 and 7)

Measured: binding

CRKRLDRNC (FITC (fluorescein isothiocyanate) on the N-terminus) [FITC-… peptide]
binds: [1] | [2] | [3] | [4]
